From PubChem BioAssay AID1487 (National Center for Advancing Translational Sciences (NCATS), 2009)
Some of the results follow. Further columns of the screen follow, without active or inactive calls. The list favours compounds with an active or inconclusive main result. Potencies come from curve fits of mixed quality, noted in brackets.

Test: qHTS Assay for Modulators of Lamin A Splicing
Conditions: HeLa LMNA splicing GFP/RFP minigene ratio, 48 h
In short: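 Read-out is the ratio of GFP to DsRed2 object intensity, acquired by 488 nm laser-scanning cytometry on HeLa lamin A-EGFP minigene reporter cells. Compound incubation 48 hrs at 37 °C in Opti-MEM with 2% FBS; DMSO 0.5% final.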

[1] = measured here: GFP splicing reporter channel
[2] = measured here: RFP viability control channel

Structure (SMILES) | AC50 [1] | AC50 [2]
Cc1ccccc1-c1cc(Nc2ccccc2)ncn1 | 14.1 µM [falling, partial curve, poor fit] | –
c1ccc(CSc2nnc3c(n2)OC(c2ccco2)Nc2ccccc2-3)cc1 (stereo not drawn) | 35.5 µM [rising, single point] | –
O=C(/C=C/c1nc2ccccc2s1)N1CCCCCC1 | 2.51 µM [rising, partial curve, poor fit] | –
Cc1[nH]n(-c2ccccc2)c(=O)c1/C=N/N1C(=O)c2ccc3c4c(ccc(c24)C1=O)CC3 | – | 35.5 µM [rising, single point]
Cc1ccc(NC(=O)c2cc(S(=O)(=O)N3CCOCC3)c(Br)s2)cc1 | 12.6 µM [rising, single point] | 22.4 µM [rising, partial curve]
Cc1cc(C(=O)NNCc2ccccc2)no1 | 2.24 µM [falling, single point] | 3.16 µM [falling, single point]
O=C(O)C1CSC(c2coc3ccccc3c2=O)N1 (stereo not drawn) | – | 11.2 µM [rising, partial curve]
O=C(NCc1cccs1)c1cnc2ccccn2c1=O | – | 0.00794 µM [falling, full curve]
CC(C)Nc1ncnc2c1nnn2Cc1ccccc1 | 17.8 µM [rising, single point] | 17.8 µM [rising, single point]
Cc1ccc(/C=C/C(O)=C2/C(=O)N(C)C3(C)CC2c2ccccc2O3)cc1 (stereo not drawn) | 11.2 µM [falling, partial curve] | 25.1 µM [falling, single point]
O=S(=O)(Cc1ccccc1)Cc1cnc(Cl)s1 | 17.8 µM [falling, partial curve, poor fit] | 0.141 µM [falling, partial curve, poor fit]
O=c1[nH]sc2ccccc12 | 11.2 µM [falling, single point] | 11.2 µM [falling, partial curve]
O=C1Nc2ccc(Cl)cc2C12Nc1ccccc1-c1nnc(SCc3ccccc3F)nc1O2 (stereo not drawn) | – | 35.5 µM [rising, single point]
CCCCCOC(=O)Nc1ccc(S(=O)(=O)Nc2cccc([N+](=O)[O-])c2)cc1 | – | 14.1 µM [rising, partial curve]
COc1ccccc1OCC(=O)NN=C(Cc1ccccc1)Cc1ccccc1 | 0.398 µM [falling, partial curve, poor fit] | 7.94 µM [rising, partial curve]
Oc1ccc(/C=C/c2ccnc3ccccc23)cc1 | 7.94 µM [rising, partial curve] | 15.8 µM [rising, partial curve]
COc1ccc(Oc2ncc3nc(-c4ccc(F)cc4)c(=O)n(C[C@H]4CCCO4)c3n2)cc1 | 11.2 µM [falling, partial curve] | –
CC1=C(c2ccc(C)c(C)c2)S(=O)(=O)N=C1N1CCC(C(=O)Nc2cccc(F)c2)CC1 | 20 µM [falling, partial curve, poor fit] | 20 µM [falling, partial curve, poor fit]
CN1CCN(C(=O)C23CCC(C)(c4nc5ccccc5nc42)C3(C)C)CC1 (stereo not drawn) | – | 3.98 µM [falling, single point]

An excerpt from above in order of SMILES length, smallest number first.
Structure (SMILES) | AC50 [1] | AC50 [2]
O=C(NCc1cccs1)c1cnc2ccccn2c1=O | – | 0.00794 µM [falling, full curve]
O=C(/C=C/c1nc2ccccc2s1)N1CCCCCC1 | 2.51 µM [rising, partial curve, poor fit] | –
COc1ccc(Oc2ncc3nc(-c4ccc(F)cc4)c(=O)n(C[C@H]4CCCO4)c3n2)cc1 | 11.2 µM [falling, partial curve] | –

Remaining list, next part

Structure (SMILES) | AC50 [1] | AC50 [2]
COc1ccc(C(=O)Nc2ncc3c(n2)CC(C)CC3=O)cc1 (stereo not drawn) | 0.0316 µM [falling, full curve, poor fit] | 0.0282 µM [falling, full curve, poor fit]
Cc1cccc(-n2nnnc2SCc2csc(-c3ccccc3)n2)c1 | – | 35.5 µM [rising, single point]
CC1=C/C(=N\N=C2\NC(=O)C(CC(=O)Nc3ccccc3F)S2)CC(C)(C)C1 (stereo not drawn) | 0.02 µM [falling, full curve, poor fit] | –
Cc1cccc(OCC(=O)Nc2ccc(Cl)c(-c3nc4ccccc4[nH]3)c2)c1 | – | 35.5 µM [rising, single point]
c1ccc2[nH]c(NCc3ccc4c(c3)OCO4)nc2c1 | 2.51 µM [falling, partial curve, poor fit] | 0.0708 µM [falling, full curve, poor fit]
CC(=O)c1cc(C#N)c(NCc2cc(-c3ccccc3)no2)nc1C | 31.6 µM [falling, partial curve, poor fit] | 39.8 µM [falling, partial curve, poor fit]
COc1ccc2ncc(S(=O)(=O)c3ccccc3)c(N3CCC4(CC3)OCCO4)c2c1 | – | 12.6 µM [rising, partial curve, poor fit]
CCOc1ccc(CCNC(=O)c2cc3ccccn3n2)cc1OCC | – | 22.4 µM [rising, single point]
Cc1cc(N2CCN(c3ccc(F)cc3)CC2)nc(-c2ccccc2)n1 | – | 12.6 µM [rising, single point]
CN(CCC#N)S(=O)(=O)c1ccc2[nH]cc(C(=O)NCCc3ccccc3)c(=O)c2c1 | 31.6 µM [rising, single point] | 35.5 µM [rising, single point]
Cc1ccccc1Nc1nnc(SCc2cc([N+](=O)[O-])cc3c2OCOC3)s1 | 11.2 µM [rising, single point] | 14.1 µM [rising, single point]
O=C(c1ccccc1)c1coc2ccc(O)c(Cl)c12 | 15.8 µM [rising, single point] | 31.6 µM [rising, single point]
Cc1ccc(N(Cc2cc3ccccc3[nH]c2=O)C(=O)c2cccs2)cc1 | – | 17.8 µM [rising, single point]
Cc1ccc(CN2CCC(c3cc(-c4cccs4)n[nH]3)CC2)cc1 | 35.5 µM [falling, single point] | 35.5 µM [falling, partial curve, poor fit]
O=C(NCc1ccc2c(c1)OCO2)c1ccc2snnc2c1 | – | 31.6 µM [rising, single point]
Cc1nc(SCC(=O)c2ccccc2)n[nH]1 | – | 0.282 µM [falling, full curve, poor fit]
Cn1c(=O)c2c(nc(N/N=C/c3ccc(OC(=O)c4ccco4)cc3)n2Cc2ccccc2Cl)n(C)c1=O | 0.178 µM [rising, partial curve] | 2.82 µM [rising, partial curve]
CCOc1cc(C(=O)Nc2ccc3c(c2)OCO3)ccc1OCCOc1ccccc1Cl | 6.31 µM [rising, partial curve] | –
O=C(Nc1ccc(OC(F)(F)F)cc1)c1ccc(-n2cncn2)nc1 | 15.8 µM [falling, partial curve, poor fit] | 14.1 µM [falling, partial curve, poor fit]

Structure (SMILES) | AC50 [1] | AC50 [2]
CCCN1CCC2(CC1)C(C#N)=C(N)Oc1c2sc2nc(C)cc(C)c12 | – | 10 µM [rising, single point]
CCOC(=O)c1ccc(Nc2c(CC)c(C)nc3ncnn23)cc1 | – | 22.4 µM [rising, single point]
O=C1c2ccccc2C(=O)N1CCCCSc1nnc(-c2ccc(OC(F)F)cc2)o1 | 35.5 µM [rising, single point] | 35.5 µM [rising, single point]
CCN(CC)c1ccc(/C=N/N=C(c2ccccc2)c2ccccc2)c(O)c1 | – | 3.98 µM [rising, single point]
O=C(Nc1cc(-c2ccccc2F)nn1-c1ccccc1)c1ccccc1Br | 0.398 µM [rising, full curve] | –
COc1ccc(/C=C/C2=NNC(=O)CC2)cc1 | – | 1 µM [falling, full curve]
C=CCSc1nc2ccccc2c(=O)n1Cc1ccccc1 | 0.1 µM [rising, full curve] | 28.2 µM [rising, single point]
O=C(O)CN1C(=O)/C(=C/c2ccc(SCc3ccccc3)o2)SC1=S | – | 35.5 µM [rising, single point]
CC(=O)Nc1cc(C(=O)OCc2cccc([N+](=O)[O-])c2)ccc1C | 1.12 µM [rising, full curve, poor fit] | 3.16 µM [rising, partial curve, poor fit]
Cc1[nH]c(=O)[nH]c(=O)c1S(=O)(=O)N(CC(C)C)CC(C)C | – | 2.51 µM [falling, partial curve]
CN(/C=C/c1c([N+](=O)[O-])c(=O)n(C)c(=O)n1C)c1ccccc1 | – | 35.5 µM [falling, single point]
Cc1cc(C)c2c(CC(=O)NCCc3ccccc3)coc2c1 | – | 4.47 µM [falling, partial curve]
CCc1ccccc1N1C(=O)C2CC=CCC2C1=O (stereo not drawn) | – | 0.0447 µM [falling, full curve, poor fit]
COc1ccccc1OC[C@H](O)CO | 3.16 µM [falling, partial curve, poor fit] | 1.78 µM [falling, partial curve, poor fit]
Cc1ccc(OCc2nc(-c3ccccn3)no2)c(Br)c1 | 12.6 µM [rising, single point] | –
CC(=O)c1c(C)[nH]c(C(=O)NCc2ccccc2)c1C | – | 0.891 µM [falling, full curve, poor fit]
C=CCn1c(NCCO)nc2c1c(=O)n(C)c(=O)n2C | – | 35.5 µM [rising, single point]
Cc1onc(-c2ccccc2)c1C(=O)NC(=S)NNC(=O)c1cccnc1 | – | 31.6 µM [rising, single point]
